# Assay results reported in PubChem BioAssay AID445 (National Center for Advancing Translational Sciences (NCATS), 2006).
# Some of the results follow. Further columns of the screen follow, without active or inactive calls. Compounds called inactive in the main read-out are mostly missing here. The note in brackets gives the kind of curve behind each potency; many fits are weak.
# Assay: IkB Signaling
# Conditions: ABC-DLBCL IkBa-CBG/CBR dual luciferase ratio (green luciferase fused to IkBa over red control in OCI-Ly3 lymphoma cells), 4 h; measured here: control luc red channel unless noted
# Summary of the method: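 Curves were fitted separately to fusion (green), unfused (red) and ratio luminescence, then classed by r2, magnitude and activity. Cells: OCI-Ly3, 4 h compound plus doxycycline at 37C; 10 uM MG-132 defined full response.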
row,Structure (SMILES),AC50
1,CC1CCN(c2ncnc3c2cnn3-c2ccc(F)cc2)CC1,"20 µM [falling, partial curve]"
2,O=C(NCCc1cccs1)c1ccc(Cn2c(SCc3ccc(F)cc3)nc3cccnc32)cc1,"10 µM [falling, partial curve]"
3,COc1ccc(C(=O)CN2CCN(S(=O)(=O)c3ccc(C(C)C)cc3)CC2)cc1,"20 µM [falling, single point]"
4,COc1cccc(N2CC(NC(=O)Cc3cccs3)CC2=O)c1 (centres undefined),"6.31 µM [rising, single point]"
5,CCOc1ccc(-c2cc(CCCC(=O)NCc3ccco3)no2)cc1,"2 µM [falling, partial curve]"
6,CCn1cc(C(=O)NCCc2ccc(C)cc2)c(=O)c2cc(S(=O)(=O)N(C)C)ccc21,"12.6 µM [rising, partial curve, poor fit]"
7,Cc1ccccc1C(=O)Nc1ccccc1C(=O)OCc1cc(=O)n2ccsc2n1,"10 µM [falling, full curve]"
8,Cc1cc(C)c(Cn2c3ccccc3c3cnn(CC(=O)N4CCCCC4)c(=O)c32)c(C)c1,"12.6 µM [falling, partial curve]"
9,O=C(CSc1nnc(-c2ccc(O)cc2)n1Cc1ccco1)N1CCc2ccccc2C1,"15.8 µM [falling, partial curve]"
10,Cc1c(Cl)cccc1NS(=O)(=O)c1ccc2[nH]cc(C(=O)NC3CCCC3)c(=O)c2c1,"15.8 µM [falling, partial curve]"
11,Cc1ccc(S(=O)(=O)c2nc(-c3cccs3)oc2N2CCCCC2)cc1,"39.8 µM [falling, single point]"
12,Oc1ccccc1C1Nc2cccc3cccc(c23)N1,"15.8 µM [rising, partial curve] [measured here: IkB-luc green channel]"
13,CC(=O)c1cccc(NS(=O)(=O)c2ccc3[nH]c4c(c3c2)CCCCCC4)c1,"39.8 µM [falling, single point]"
14,N#CC1=C(N)SC(N)=C(C#N)C1CCC1CCCCC1,"25.1 µM [falling, partial curve]"
15,CCN(CC)S(=O)(=O)c1ccc2c(c1)nc(SCc1nc3ccsc3c(=O)[nH]1)n2CC,"3.16 µM [falling, partial curve]"
16,CCCCOc1ccc(CNC(=O)CN2CCSc3ccccc32)cc1,"25.1 µM [falling, partial curve]"
17,O=C(NCc1ccco1)c1cc2ccccc2c(=O)o1,"20 µM [falling, single point]"
18,O=C(CSc1ncccc1-c1nc2ccccc2[nH]1)NC1CC1,"0.158 µM [falling, full curve]"
19,CCn1c(SCC(=O)c2cc(C)n(-c3ccc(C(=O)OC)cc3)c2C)nnc1-c1cccnc1,"10 µM [falling, partial curve]"
20,Cc1nc2nc(NC(=O)c3cccc(Cl)c3)[nH]n2c(=O)c1Cc1ccccc1,"12.6 µM [falling, single point]"

row,Structure (SMILES),AC50
1,CCC(C(=O)N1CCN(c2cccc(C)c2C)CC1)n1nc(C)c2sc3ccccc3c2c1=O (centres undefined),"12.6 µM [falling, partial curve]"
2,COc1ccc(CCNC(=O)CCc2c(C)nc3c(c(C)nn3-c3ccc(C)c(C)c3)c2C)c(OC)c1OC,"15.8 µM [falling, partial curve]"
3,Cc1ccc(NC(=O)CCn2c(=O)c3cccn3c3ccccc32)c(Cl)c1,"25.1 µM [falling, partial curve]"
4,NS(=O)(=O)c1ccc(CCNC(=O)CCCCCn2c(=O)[nH]c3ccccc3c2=O)cc1,"1.58 µM [rising, full curve]"
5,Cc1ccc(NC(=O)c2nn(C)c3c2CS(=O)(=O)c2ccccc2-3)c(Cl)c1,"31.6 µM [falling, single point]"
6,CCCOc1c(OC)cccc1C1CC(=O)Nc2cc3c(cc21)OCO3 (centres undefined),"12.6 µM [falling, partial curve]"
7,O=C(CCCCCn1c(=O)c2sccc2n(CC(=O)Nc2cccc(Cl)c2)c1=O)NCc1ccc2c(c1)OCO2,"3.98 µM [falling, full curve]"
8,COc1ccc(-c2nc3c(c(SCC(=O)Nc4ccc(C(=O)O)cc4)n2)Cc2ccccc2O3)cc1,"15.8 µM [falling, partial curve]"
9,CCOC(=O)Cc1ccc(NC(=O)Nc2cccc(OCc3cc(=O)n4cc(C)ccc4n3)c2)cc1,"2.51 µM [falling, partial curve]"
10,O=C1c2[nH]nc(-c3ccccc3O)c2C(c2ccccc2)N1Cc1ccco1 (centres undefined),"25.1 µM [falling, partial curve]"
11,Cc1ccc(C(C(=O)NCc2ccco2)N(CCc2ccccc2)C(=O)Cn2nnc3ccccc32)o1 (centres undefined),"31.6 µM [falling, partial curve]"
12,CCc1c(C)sc2c1CCN(C(=O)Nc1cc(OC)c(OC)c(OC)c1)C2c1ccccc1 (centres undefined),"10 µM [falling, partial curve]"
13,COc1ccc(N(C(=O)/C=C\C(=O)Nc2ccc(Cl)cc2)C(C(=O)NCc2ccco2)c2ccc(C)cc2)cc1 (centres undefined),"25.1 µM [falling, partial curve]"
14,COc1ccc(NC(=O)CCS(=O)(=O)c2nc(-c3cccs3)cc(C(F)(F)F)n2)cc1OC,"3.98 µM [falling, partial curve]"
15,COc1ccccc1NC(=O)Cn1c(=O)n(Cc2ccc3c(c2)OCO3)c(=O)c2oc3ccccc3c21,"15.8 µM [falling, single point]"
16,Oc1ccc(N=Cc2ccc(-c3cccs3)s2)cc1,"5.01 µM [rising, full curve] [measured here: IkB-luc green channel]"
17,O=C(CNCCC1=CCCCC1)Nc1ccccc1N1CCCCC1,"25.1 µM [falling, partial curve]"
18,Cc1ccc(NC(=O)CN(c2ccccc2)S(=O)(=O)N(C)C)cc1Cl,"15.8 µM [falling, partial curve]"
19,Cc1cccc(C(=O)Nc2cccc(C(=O)OCc3cc(=O)n4ccsc4n3)c2)c1,"0.0398 µM [falling, full curve]"

# Exported bar-delimited: entries from further up.
row | Structure (SMILES) | AC50
1 | CCC(C(=O)N1CCN(c2cccc(C)c2C)CC1)n1nc(C)c2sc3ccccc3c2c1=O (centres undefined) | 12.6 µM [falling, partial curve]
2 | COc1ccc(CCNC(=O)CCc2c(C)nc3c(c(C)nn3-c3ccc(C)c(C)c3)c2C)c(OC)c1OC | 15.8 µM [falling, partial curve]
